Reference: patent US20030198640A1
These are yes or no findings as the source states them, for the method shown. For some assays here: Binding seen in cells or lysates may run through a third protein. Some binding calls cover weakened binding; strength is not graded here.

The chains behind the UniProt entries cited, without tags or fusion partners. Where a name states a change or a piece, a line headed by the entry shows the natural chain unless it says otherwise. Residues count along the entry.
UniProt P25445, residues 191-335: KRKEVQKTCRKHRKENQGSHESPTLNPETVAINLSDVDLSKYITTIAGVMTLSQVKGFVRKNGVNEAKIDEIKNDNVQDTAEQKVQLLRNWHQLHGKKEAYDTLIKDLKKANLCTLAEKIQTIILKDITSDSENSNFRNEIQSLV
UniProt Q13158: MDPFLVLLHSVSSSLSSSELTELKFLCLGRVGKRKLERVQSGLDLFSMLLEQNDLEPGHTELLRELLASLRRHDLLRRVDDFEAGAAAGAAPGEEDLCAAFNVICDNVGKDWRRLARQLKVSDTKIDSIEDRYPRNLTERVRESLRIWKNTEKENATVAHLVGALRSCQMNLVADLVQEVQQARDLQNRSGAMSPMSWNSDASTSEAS
UniProt O95150: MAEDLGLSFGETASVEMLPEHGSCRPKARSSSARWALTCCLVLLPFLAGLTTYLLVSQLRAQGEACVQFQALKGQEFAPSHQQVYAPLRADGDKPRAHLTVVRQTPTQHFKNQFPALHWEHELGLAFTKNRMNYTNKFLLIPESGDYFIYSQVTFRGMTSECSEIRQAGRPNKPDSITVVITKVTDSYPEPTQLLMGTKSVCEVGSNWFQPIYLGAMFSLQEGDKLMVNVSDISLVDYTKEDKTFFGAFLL

What was measured:
[1] = target: GST fusion of the cytoplasmic domain of Fas (UniProt P25445); assay: GST pull-down of in vitro translated 35S-labelled protein
[2] = target: T1, death domain truncated DR3 (DR3ΔDD, aa 1-345), on transfected cells (human) (UniProt Q93038); assay: flow cytometry on transiently transfected cells
T1 sequence: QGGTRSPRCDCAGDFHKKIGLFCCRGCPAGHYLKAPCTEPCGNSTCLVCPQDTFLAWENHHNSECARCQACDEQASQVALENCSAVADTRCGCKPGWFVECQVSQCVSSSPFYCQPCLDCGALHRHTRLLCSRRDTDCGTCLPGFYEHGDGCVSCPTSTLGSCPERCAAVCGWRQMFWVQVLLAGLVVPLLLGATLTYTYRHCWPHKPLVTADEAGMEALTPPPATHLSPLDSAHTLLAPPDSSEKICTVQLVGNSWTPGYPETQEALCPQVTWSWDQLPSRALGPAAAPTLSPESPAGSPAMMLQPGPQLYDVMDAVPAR

Substance | binding [1] | binding [2]
FADD (AU1-FADD) (from UniProt Q13158 1-208) | binds | 
FLAG-tagged soluble form of TNF-gamma-beta (aa 72-251) (from UniProt O95150 72-251) (ligand) |  | binds
